Experimental data reported in the supplement of paper PMC11237882.
The list shows a part of the results. Values are worked out from sequencing counts and are noisy.

T1: Homer1 EVH1 domain
T1 chain: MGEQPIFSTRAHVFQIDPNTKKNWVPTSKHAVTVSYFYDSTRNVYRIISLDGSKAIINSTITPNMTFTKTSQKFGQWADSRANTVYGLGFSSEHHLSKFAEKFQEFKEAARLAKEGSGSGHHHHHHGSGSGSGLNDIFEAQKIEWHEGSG


Molecular target: T1, Homer1 EVH1 domain
Assay: enrichment score (AUC of log2 frequency ratio across FACS sorting rounds) (log2 AUC); higher = stronger enrichment for Homer1 EVH1 binding

**Q.** For IFQDVIETRGREYAGLYDDISTQGWFIGLMCAIALL, which enrichment score is on record?
**A.** 1.11

**Q.** Which enrichment score does the source give for LFVIFLLAYVTTIGGTLSILAAILMETKLHSPMYFF here?
**A.** 2.55

**Q.** GILITLMTFSIIELFISLPFSILGCHSEDCDCEQCS was tested. Which enrichment score did it give?
**A.** 1.2

**Q.** For AAAIQGLWALISGLAMGLFYLLEYSRRKRSKSQNIL, which enrichment score is on record?
**A.** 4.2

**Q.** For RERLRAGLAGTGASLWFVAGLGLLYALRIPLRLCEN, which enrichment score is on record?
**A.** 1.12

**Q.** EKKSPVGLHFLFLLGTLGLFGLTFAFIIQEDETICS was tested. Which enrichment score did it give?
**A.** 0.174

**Q.** With NEIQTVRKINSLFQVLTVLFFLEVVGFKNLALMDSS as the binder, how does the enrichment score read?
**A.** 1.09

**Q.** NSPNYGLLLLWASLSNAVPVAFWTLAYVLSHPDIHK was tested. Which enrichment score did it give?
**A.** 3.37

**Q.** With PRPPEAQMVLQPQPQLFFFLSFFLFLFLFLFFFSRD as the binder, how does the enrichment score read?
**A.** -0.31

**Q.** For GSRNLRAAHALEHTFAPVTDGAISTLLGLLMLAGSH, which enrichment score is on record?
**A.** 2.65

**Q.** For YVREPPNAKPDWLKVGFTLGTTVFLWIYLIKQHNED, which enrichment score is on record?
**A.** -0.636

**Q.** LEENEISPSLYAAPWFLTLFASQFSLGFVARVFDII was tested. Which enrichment score did it give?
**A.** -1.44

**Q.** MLRMRTAGWARGWCLGCCLLLPLSLSLAAAKQLLRY was tested. Which enrichment score did it give?
**A.** 2.38

**Q.** LLHLAVFLWIIIAINFSNSGVKSQSSTYLPSGKILK was tested. Which enrichment score did it give?
**A.** -1.85

**Q.** With IGVVVASCFSLILLSYIQIIQAILRIHTADGRRRAF as the binder, how does the enrichment score read?
**A.** 2.95

**Q.** Which enrichment score does the source give for LGQASFEAMASIINRLHKNLEGNHDQHGRNSLLASY here?
**A.** 1.57

**Q.** How did the enrichment score turn out when MGLLVFVRNLLLALCLFLVLGFLYYSAWKLHLLQWE was run?
**A.** 2.35

**Q.** With KSMILSHFFRHPNITTYWTVFTVGSWLWVISPFMAY as the binder, how does the enrichment score read?
**A.** 3.28

**Q.** RFPDILRVFWLTRVTAQATVLMYILRMANETDSFFI was tested. Which enrichment score did it give?
**A.** -0.635

**Q.** MPPLWALLALGCLLFGSAVNLQPQLASVTFATNNPT was tested. Which enrichment score did it give?
**A.** 4.73

**Q.** How did the enrichment score turn out when ELQMRRSSLPATDAALIFVLTIGVIICVFIIFLLIF was run?
**A.** 0.275

**Q.** For SLVLSQESEGKMCFLNKLLLLAVLGCLSQIPTVPED, which enrichment score is on record?
**A.** 3.07

**Q.** With KLRGDPLLGTPDIRSRAFFCALLNILSIGCAYSAVQ as the binder, how does the enrichment score read?
**A.** 2.55

**Q.** Which enrichment score does the source give for LKNATGLGLIVTSTGILILLHYYVFSTAIGLTSFVI here?
**A.** 0.711

**Q.** For QLFFINHVILTDTFIGYLVGNTLWLVAVGYYIYVTF, which enrichment score is on record?
**A.** -0.388

**Q.** TRSGIISTLIINIICIITTITAVTLTIIELSHFNSV was tested. Which enrichment score did it give?
**A.** -2.79

**Q.** For RTAYVYRVPEEAKILFLALNIVYGVLPQLLAYRCIY, which enrichment score is on record?
**A.** 1.68

**Q.** With MAVFKTTLWRLISGTLGIICLSLMATLGILLKNSFI as the binder, how does the enrichment score read?
**A.** 2.27
